Measurements: PubChem BioAssay AID504467 (National Center for Advancing Translational Sciences (NCATS), 2011)
Hit rate of the full screen: of about 330,000 compounds, about 7,700 (2.3%) were called active. Inconclusive means that the source gave no clear call. Such entries were picked first, then a sample of the others. Calls follow the shape of the dose curve; as a rule, active = well fitted inhibition curve with a large enough effect; inconclusive = small, poorly fitted or top-dose-only effect, or effect the other way; inactive = flat fitted curve, though single readings scatter. Potencies beside an inconclusive call are fits to weak or partial responses and may not hold up.

Assay: qHTS screen for small molecules that inhibit ELG1-dependent DNA repair in human embryonic kidney (HEK293T) cells expressing luciferase-tagged ELG1; also: nearly all actives have a fitted effect of over 55% in size
Conditions: HEK293T ELG1-luciferase reporter, luminescence, 16 h, DNA damage induced by 5-fluorouridine; series mostly up to 46.1 µM
Summary of the method: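 DMSO vehicle served as the neutral condition. Each well held 2,000 cells given 5-fluorouridine plus compound; after 16 hr at 37 °C/5% CO2, ONE-Glo was added and luciferase measured 30 min later.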
Potency is read from the fitted curve at half-maximal effect.

Row | Structure (SMILES) | Potency
1 | O=C(/C=C/c1ccccc1)OCCN1C(=O)c2ccccc2C1=O | inactive
2 | O=C(O)COc1ccccc1/C=C1\SC(=S)N(c2cccnc2)C1=O | inconclusive: 8.2 µM [inhibitor, partial curve]
3 | COc1cc(OC)cc(C(=O)NC2CCN(CC(=O)Nc3cccc4ccccc34)CC2)c1 | active: 11.6 µM
4 | O=C(NNC(=O)c1cc2ccccc2o1)c1ccc(F)cc1 | inconclusive: 14.6 µM [activator, partial curve]
5 | O=C(Nn1c(SCc2ccc([N+](=O)[O-])cc2)nc2ccccc2c1=O)c1ccc(F)cc1 | inconclusive: 2.06 µM [activator, full curve]
6 | C[N+]1(CC(=O)OC2CCCCCCCCCCC2)CCCC1 | inconclusive: 29.1 µM [inhibitor, single point]
7 | C=CCC1(CC=C)CCCN1C(=O)c1cc(COc2ccc(C)nc2)on1 | inconclusive: 29.1 µM [activator, single point]
8 | CN(CC(=O)Nc1ccc(N2CCOCC2)cc1)C(=O)CCCOc1ccc(Cl)cc1Cl | inconclusive: 20.6 µM [inhibitor, single point]
9 | C=C(C)C(O)COc1c2occc2c(OC)c2ccc(=O)oc12 (stereo not given) | inconclusive: 29.1 µM [inhibitor, single point]
10 | CNC(=S)Nc1ccc(-c2nc3ccc(C)cc3s2)cc1 | inconclusive: 2.59 µM [activator, full curve]
11 | O=P(c1ccccc1)(c1ccccc1)N(c1ccccc1)c1ccccc1 | inactive
12 | C/C(=N\Nc1nc(-c2ccccc2)cs1)c1cccs1 | inconclusive: 1.84 µM [activator, full curve]
13 | COc1ccccc1NC(=O)N1CCc2c([nH]c3ccccc23)C1C(F)(F)F (stereo not given) | inactive
14 | CCC1=C(OC(=O)N(CC)CC)N2C(=O)OC(=NCC3CC3)[C@]2(C)[C@H]2C1=CC[C@H]1C(=O)N(C)C(=O)[C@H]12 | inconclusive: 14.6 µM [activator, partial curve, poor fit]
15 | O=C(CCS(=O)(=O)c1cccs1)N1CCCC1 | inconclusive: 18.4 µM [activator, partial curve]
16 | NC(=O)c1ccc2c(=O)n3c(-c4cc(Cl)c(N)c(Cl)c4)csc3nc2c1 | active: 10.3 µM
17 | N#Cc1c(NC(=O)CSc2ncc(-c3ccccc3)n2CC2CCCO2)sc2c1CCCC2 (stereo not given) | inactive
18 | O=C(Cn1cc(C(F)(F)F)ccc1=O)Nc1ccccc1 | inconclusive: 16.4 µM [activator, single point]
19 | COCCNS(=O)(=O)c1ccc(-c2ccc(Cl)cc2)cc1 | inconclusive: 32.6 µM [inhibitor, single point]
20 | Cc1cccc(Nc2nc(-c3ccccc3)cs2)n1 | inconclusive: 0.447 µM [activator, full curve, poor fit]
21 | CCCCN(CC)c1nc(N)c(C#N)c(CC#N)c1C#N | inconclusive: 29.1 µM [inhibitor, single point]
22 | Cc1cc(=O)oc2cc(NC(=O)CCCC(=O)O)ccc12 | inconclusive: 32.6 µM [activator, partial curve, poor fit]
23 | CCOC(=O)N1CCC(NC(=O)CCC(=O)N2CCOc3ccc(Cl)cc32)CC1 | inconclusive: 1.3 µM [inhibitor, single point]
24 | CC1(C)NC(=O)N(CCOCCSc2ccccc2)C1=O | inactive

Entries listed so far that contain fluorine (four):
Row | Structure (SMILES) | Potency
4 | O=C(NNC(=O)c1cc2ccccc2o1)c1ccc(F)cc1 | inconclusive: 14.6 µM [activator, partial curve]
5 | O=C(Nn1c(SCc2ccc([N+](=O)[O-])cc2)nc2ccccc2c1=O)c1ccc(F)cc1 | inconclusive: 2.06 µM [activator, full curve]
13 | COc1ccccc1NC(=O)N1CCc2c([nH]c3ccccc23)C1C(F)(F)F (stereo not given) | inactive
18 | O=C(Cn1cc(C(F)(F)F)ccc1=O)Nc1ccccc1 | inconclusive: 16.4 µM [activator, single point]

The list continues.

Row | Structure (SMILES) | Potency
25 | CC1CCCN(C(=O)C2CCN(CCCc3ccccc3)CC2)C1 (stereo not given) | inconclusive: 0.259 µM [inhibitor, single point]
26 | COc1ccc2c(=O)cc(-c3ccccc3F)oc2c1 | inconclusive: 20.6 µM [activator, partial curve]
27 | CCn1c(SCC(=O)OCc2ccccc2)nc2c1c(=O)n(C)c(=O)n2C | inconclusive: 15.8 µM [activator, partial curve, poor fit]
28 | CN(C)S(=O)(=O)c1cccc(NC(=O)CCSc2ccc(Cl)cc2)c1 | inconclusive: 20.6 µM [inhibitor, single point]
29 | COc1cccc(CNC(=O)CCC2CCCN(C(=O)c3cc4ccccc4o3)C2)c1 (stereo not given) | inactive
30 | O=C(c1cc2cc([N+](=O)[O-])ccc2s1)N1CCCCC1 | inconclusive: 25.9 µM [activator, single point]
31 | COCCN1C(=O)/C(=C/c2ccc(Oc3ccc([N+](=O)[O-])cn3)c(OC)c2)SC1=Nc1ccccc1 | active: 2.59 µM
32 | COc1ccc(-n2nnnc2SCC(=O)NNC(=O)c2ccc([N+](=O)[O-])cc2)cc1 | inconclusive: 18.4 µM [activator, partial curve, poor fit]
33 | O=C(CNCc1ccc(F)cc1)Nc1cc(S(=O)(=O)N2CCOCC2)ccc1Cl | inconclusive: 2.91 µM [inhibitor, partial curve, poor fit]
34 | COC(=O)C(O)(CC(=O)c1ccc(OC)cc1)C(F)(F)F (stereo not given) | inconclusive: 32.6 µM [activator, partial curve, poor fit]
35 | CC(C)NC(=O)CCc1nnc(Cc2cccc(C(F)(F)F)c2)o1 | inconclusive: 23.1 µM [activator, single point]
36 | CSc1ncccc1C(=O)Nc1ccc(S(=O)(=O)N2CCCC2)cc1 | inactive
37 | CCOC(=O)c1ccc(N2CCN(c3ccccc3F)CC2)c(NC(=O)Nc2ccccc2)c1 | inconclusive: 8.2 µM [inhibitor, partial curve, poor fit]
38 | COc1cccc(C(=O)Nc2ccc(F)c(F)c2F)c1 | inconclusive: 14.6 µM [activator, partial curve]
39 | CC(C)COc1ccc2[nH]c3c(c2c1)CCCC3=O | inactive
40 | Cc1ccc(OCC(=O)NCCCNC(=O)c2ccc(C)nc2)cc1 | inactive
41 | O=C(N/N=C/c1c(O)ccc2ccccc12)c1cccc(C(F)(F)F)c1 | inconclusive: 2.06 µM [inhibitor, full curve]
42 | O=C(c1ccc2c(=O)n(-c3ccccc3)c(=O)[nH]c2c1)N1CCN(c2ccc(F)cc2)CC1 | inconclusive: 18.4 µM [inhibitor, single point]
43 | CCc1ccccc1NC(=O)C1=CN2CCS(=O)(=O)N=C2C=C1 | inactive
44 | O=C(COc1ccccc1Cl)Nc1ccc(N2CCN(C(=O)c3ccccc3)CC2)cc1 | active: 13 µM
45 | CC(=O)N1CCCc2cc(S(=O)(=O)N(CC(C)C)CC(C)C)ccc21 | inactive
46 | Cc1ccccc1C(=O)Nc1ccc(Cl)cn1 | inconclusive: 5.17 µM [activator, partial curve]
47 | O=C(CN1C(=O)NC2(CCCC2)C1=O)NCCc1ccccc1 | inactive
48 | Cc1noc(C)c1COc1ccc(C(=O)N2CCN(c3ccccc3F)CC2)cc1 | inconclusive: 13 µM [inhibitor, single point]

Row | Structure (SMILES) | Potency
49 | COc1cccc(C(=O)NCC(C)(C)SCc2ccc(F)cc2)c1 | inactive
50 | O=C(O)CN=C(NS(=O)(=O)c1ccc(Cl)cc1)c1ccc(F)cc1 | inactive
51 | O=C(Cc1cccs1)Nc1cc(SCCO)cc([N+](=O)[O-])c1 | inconclusive: 20.6 µM [inhibitor, partial curve]
52 | CCc1ccc(NC(=O)c2cc3c(C)nc4ccccc4c3o2)cc1 | inconclusive: 18.3 µM [inhibitor, single point]
53 | Cc1ccc(C)c(OCCC(=O)Nc2ccc3c(c2)OCO3)c1 | inconclusive: 29.1 µM [inhibitor, single point]
54 | COc1ccc(CCn2c(=N)c(C(=O)NCC3CCCO3)cc3c(=O)n4cccc(C)c4nc32)cc1 (stereo not given) | inconclusive: 20.6 µM [inhibitor, single point]
55 | COC(=O)c1ccc(C2C(C(=O)c3cc4ccccc4o3)=C(O)C(=O)N2CCN2CCOCC2)cc1 (stereo not given) | inconclusive: 0.0651 µM [inhibitor, partial curve, poor fit]
56 | CCC1CCCCN1C(=O)c1ccc(OC2CCN(C(=O)C3CC3)CC2)cc1 (stereo not given) | inconclusive: 32.6 µM [activator, single point]
57 | O=C(Cn1nc(C(F)(F)F)c2c1CCC2)N1CCN(c2ccccc2)CC1 | inactive
58 | COc1ccc(/C=N/NC(=O)c2nc(-c3ccccc3)cc(-c3ccccc3)n2)cc1 | active: 6.51 µM
59 | O=C(NCc1ccco1)c1ccc2c(c1)C(=O)N(Cc1ccccc1)C2=O | inactive
60 | CC1=C(Nc2ccc(C(=O)O)cc2)C(=O)c2ccccc2C1=O | inactive
61 | O=C(CN1CCN(S(=O)(=O)c2ccc(F)cc2)CC1)Nc1ccccc1C(=O)NC1CC1 | inactive
62 | CS/C(N)=N/N=C/c1cc(C)ccc1O | inconclusive: 4.11 µM [activator, partial curve]
63 | Cn1cc(CN2CCC(C(O)c3cccs3)CC2)c(-c2cccc(Cl)c2)n1 (stereo not given) | inactive
64 | CCN1C(=O)/C(=C2/C(=O)N3c4c(cc(OC(C)=O)cc42)C(C)=CC3(C)C)SC1=S | inactive
65 | O=C(COC(=O)c1ccc(S(=O)(=O)N2CCCC2)cc1)NCc1cccs1 | inactive
66 | COCc1cc(C)c2c(N)c(C#N)sc2n1 | inconclusive: 9.2 µM [activator, partial curve, poor fit]
67 | Cc1ccc(C(=O)COC(=O)c2cn3ccccc3n2)cc1 | inconclusive: 9.2 µM [activator, partial curve, poor fit]
68 | Cn1nc(C(F)(F)F)c(CO)c1Sc1ccc(F)cc1 | inconclusive: 29.1 µM [inhibitor, partial curve, poor fit]
69 | Cc1ccc(-c2csc3ncn(CC(=O)N4CCOCC4)c(=O)c23)cc1C | inconclusive: 32.6 µM [inhibitor, partial curve, poor fit]
70 | Cc1c(C(=O)C(=O)N2c3ccccc3CC2C)c2ccccc2n1C (stereo not given) | inconclusive: 29.1 µM [inhibitor, single point]
